Values from PubChem BioAssay AID1053208 (Peter MacCallum Cancer Centre, 2014)
This is one part, drawn at random, of about 17,000 reagents. 788 of them (4.7%) count as active. 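Calls rest on z-score classes alone; an extra cut-off of viability at most 70% of control was not applied to them.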 Reagents against one gene are numbered here. Further read-outs or replicates are left out here. Reagent sequences are not shown.

- Assay: 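Genes whose silencing cuts survival of bone tumour cells only with doxorubicin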 (primary screen)
- System: mouse osteosarcoma cells, early-passage culture from an engineered mouse model of fibroblastic bone tumour
- Knock-down reagent: siRNA pool against mouse genes, 40 nM
- Duration: about 120 h (48 h before drug, then 72 h with drug)
- Treatment: doxorubicin 100 nM for 72 h, roughly 30-40% inhibitory dose
- Measured: 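Luminescent ATP signal taken as viability with or without 100 nM doxorubicin for 72 h; mean of two wells set against non-targeting siRNA and turned into robust z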
- Direction: viability z-score with doxorubicin: higher = more viable cells under doxorubicin; viability z-score without drug: higher = more viable cells with knock-down alone
- Rule for the call: 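a pool counts as active when its viability z-score with doxorubicin is -2 or below and its z-score without drug lies between -2 and 2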

Target gene | pool no. | combined z-score class | viability z-score with doxorubicin | viability z-score without drug | call
Tlr13 (GeneID 279572) | 1 | no change with or without drug | 0.67 | -0.51 | inactive
Zfp825 (GeneID 235956) | 1 | no change with or without drug | 0.11 | 0.51 | inactive
Usp7 (GeneID 252870) | 1 | no change with or without drug | -0.45 | 0.17 | inactive
Dmgdh (GeneID 74129) | 1 | no change with or without drug | 1.12 | 0.34 | inactive
Rbm18 (GeneID 67889) | 1 | no change with or without drug | 1.57 | -0.51 | inactive
Cacng2 (GeneID 12300) | 1 | no change with or without drug | 1.24 | 1.69 | inactive
Vmn1r205 (GeneID 171251) | 1 | low cell count with doxorubicin only | -2.02 | -0.84 | active
Zfp219 (GeneID 69890) | 1 | low cell count without drug only | -1.35 | -2.53 | inactive
Tcp10a (GeneID 21461) | 1 | no change with or without drug | -0.45 | 0 | inactive
Tcp10a (GeneID 21461) | 2 | no change with or without drug | -0.22 | 1.01 | inactive
Phf7 (GeneID 71838) | 1 | no change with or without drug | -1.35 | 0.84 | inactive

Look-ups from the list:
Cacng2 (GeneID 12300), viability z-score without drug = 1.69
Rbm18 (GeneID 67889), call = inactive

The results go on.
Target gene | pool no. | combined z-score class | viability z-score with doxorubicin | viability z-score without drug | call
Matr3 (GeneID 17184) | 1 | no change with or without drug | -0.67 | -1.18 | inactive
Eepd1 (GeneID 67484) | 1 | high cell count without drug only | -0.67 | 2.19 | inactive
Ntf5 (GeneID 78405) | 1 | no change with or without drug | -0.45 | -1.69 | inactive
Fndc10 (GeneID 230991) | 1 | no change with or without drug | -0.45 | -1.18 | inactive
Jazf1 (GeneID 231986) | 1 | no change with or without drug | -0.56 | 0.84 | inactive
Hdc (GeneID 15186) | 1 | no change with or without drug | 0 | 0.17 | inactive
Pmvk (GeneID 68603) | 1 | no change with or without drug | 1.8 | 0.84 | inactive
Kif15 (GeneID 209737) | 1 | no change with or without drug | 0.67 | 0.84 | inactive
Ece1 (GeneID 230857) | 1 | no change with or without drug | -0.67 | 0.17 | inactive
